This note sets out measurements from article PMC5131917.

Protein sequences, listed by entry. Tags and fused reporters are not part of them. Lines headed by an entry give the natural chain unless they say otherwise; changes in a name come on top.
UniProt P12004: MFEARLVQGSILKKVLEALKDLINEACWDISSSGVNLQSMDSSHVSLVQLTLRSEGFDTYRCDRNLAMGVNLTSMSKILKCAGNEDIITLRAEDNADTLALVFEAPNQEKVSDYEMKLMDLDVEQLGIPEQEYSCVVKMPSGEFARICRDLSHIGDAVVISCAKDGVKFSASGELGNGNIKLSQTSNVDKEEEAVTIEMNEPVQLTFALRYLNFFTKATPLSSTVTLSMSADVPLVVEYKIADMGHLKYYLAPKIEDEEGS
UniProt Q6IQ49: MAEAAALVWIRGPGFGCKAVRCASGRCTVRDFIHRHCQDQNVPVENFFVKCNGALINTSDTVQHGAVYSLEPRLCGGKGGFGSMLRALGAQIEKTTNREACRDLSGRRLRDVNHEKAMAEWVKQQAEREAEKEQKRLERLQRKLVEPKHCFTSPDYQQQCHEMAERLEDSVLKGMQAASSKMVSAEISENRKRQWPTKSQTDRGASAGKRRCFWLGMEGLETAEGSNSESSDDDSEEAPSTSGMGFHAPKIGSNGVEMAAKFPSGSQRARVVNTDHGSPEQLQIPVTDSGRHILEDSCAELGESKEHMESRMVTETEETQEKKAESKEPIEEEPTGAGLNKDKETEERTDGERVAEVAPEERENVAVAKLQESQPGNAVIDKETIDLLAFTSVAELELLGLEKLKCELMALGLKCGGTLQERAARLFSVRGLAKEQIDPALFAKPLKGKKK
UniProt Q9NZJ0: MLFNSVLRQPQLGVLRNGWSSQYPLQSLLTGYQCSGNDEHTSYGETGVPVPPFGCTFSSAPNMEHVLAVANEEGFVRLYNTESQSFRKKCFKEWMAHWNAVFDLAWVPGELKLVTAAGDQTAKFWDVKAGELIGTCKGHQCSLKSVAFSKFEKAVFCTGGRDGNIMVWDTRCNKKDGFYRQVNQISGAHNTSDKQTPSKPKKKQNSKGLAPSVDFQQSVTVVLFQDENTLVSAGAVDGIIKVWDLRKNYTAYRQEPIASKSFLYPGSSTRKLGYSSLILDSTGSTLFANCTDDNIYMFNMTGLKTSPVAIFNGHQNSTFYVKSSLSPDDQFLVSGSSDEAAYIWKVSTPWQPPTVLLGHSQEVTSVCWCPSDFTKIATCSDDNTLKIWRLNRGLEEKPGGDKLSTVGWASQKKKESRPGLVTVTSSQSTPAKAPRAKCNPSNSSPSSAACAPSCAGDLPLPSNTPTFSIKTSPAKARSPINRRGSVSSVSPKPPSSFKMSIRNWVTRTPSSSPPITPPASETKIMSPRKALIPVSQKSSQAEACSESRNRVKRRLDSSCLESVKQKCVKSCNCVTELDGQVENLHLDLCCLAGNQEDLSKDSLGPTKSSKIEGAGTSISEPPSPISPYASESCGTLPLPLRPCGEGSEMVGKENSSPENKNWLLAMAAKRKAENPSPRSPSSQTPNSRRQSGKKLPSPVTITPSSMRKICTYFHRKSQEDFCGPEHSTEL

No constants are given. Whether binding was seen depends on the method and setting. Binding seen in cells or lysates may run through a third protein. For some of these results: Binding can be weak; no strength is given.

Assay [1] addresses GST-PCNA (UniProt P12004). Kind of assay: pull-down; GST-PCNA (or GST) bound to glutathione-sepharose beads, incubated with 293T cell lysates in NETN150 buffer (1% NP40, 150 mM NaCl, 0.1 mM EDTA, 50 mM Tris pH 7.5) for 3 h at 4°C, three washes, Western blotting; only the target purified.
Assay [2] concerns the target Flag-tagged SDE2 with the SAP domain deleted (ΔSAP) (human) (UniProt Q6IQ49). The assay is described as follows: co-IP; 293T cells co-expressing HA-CDT2 and Flag-SDE2 variants, 10 uM MG132 for 4 h; lysis in NETN150 buffer, anti-Flag M2 affinity gel, four washes, Western blotting.
Assay [3] has as its target C-terminally Flag-tagged SDE2 (wild type) (human) (UniProt Q6IQ49). The description is as above.

In the case of “GFP-SDE2 GA (full-length SDE2, diglycine Gly76 & 77 mutated to alanines) (from UniProt Q6IQ49-1)”, in assay [1], the binding entry is listed as “binds”.
In the case of HA-CDT2 (from UniProt Q9NZJ0 1-730), the results for the binding result in assay [2] and in assay [3] were “no binding” and “binds”, respectively.
With “GFP-SDE2 GA + PIP (F47A & F48A) (from UniProt Q6IQ49-1)”, the binding entry in assay [1] is “no binding”.
